This assay has as its target T1, Ync13–3FLAG (S. pombe) (UniProt O13683).
T1 sequence: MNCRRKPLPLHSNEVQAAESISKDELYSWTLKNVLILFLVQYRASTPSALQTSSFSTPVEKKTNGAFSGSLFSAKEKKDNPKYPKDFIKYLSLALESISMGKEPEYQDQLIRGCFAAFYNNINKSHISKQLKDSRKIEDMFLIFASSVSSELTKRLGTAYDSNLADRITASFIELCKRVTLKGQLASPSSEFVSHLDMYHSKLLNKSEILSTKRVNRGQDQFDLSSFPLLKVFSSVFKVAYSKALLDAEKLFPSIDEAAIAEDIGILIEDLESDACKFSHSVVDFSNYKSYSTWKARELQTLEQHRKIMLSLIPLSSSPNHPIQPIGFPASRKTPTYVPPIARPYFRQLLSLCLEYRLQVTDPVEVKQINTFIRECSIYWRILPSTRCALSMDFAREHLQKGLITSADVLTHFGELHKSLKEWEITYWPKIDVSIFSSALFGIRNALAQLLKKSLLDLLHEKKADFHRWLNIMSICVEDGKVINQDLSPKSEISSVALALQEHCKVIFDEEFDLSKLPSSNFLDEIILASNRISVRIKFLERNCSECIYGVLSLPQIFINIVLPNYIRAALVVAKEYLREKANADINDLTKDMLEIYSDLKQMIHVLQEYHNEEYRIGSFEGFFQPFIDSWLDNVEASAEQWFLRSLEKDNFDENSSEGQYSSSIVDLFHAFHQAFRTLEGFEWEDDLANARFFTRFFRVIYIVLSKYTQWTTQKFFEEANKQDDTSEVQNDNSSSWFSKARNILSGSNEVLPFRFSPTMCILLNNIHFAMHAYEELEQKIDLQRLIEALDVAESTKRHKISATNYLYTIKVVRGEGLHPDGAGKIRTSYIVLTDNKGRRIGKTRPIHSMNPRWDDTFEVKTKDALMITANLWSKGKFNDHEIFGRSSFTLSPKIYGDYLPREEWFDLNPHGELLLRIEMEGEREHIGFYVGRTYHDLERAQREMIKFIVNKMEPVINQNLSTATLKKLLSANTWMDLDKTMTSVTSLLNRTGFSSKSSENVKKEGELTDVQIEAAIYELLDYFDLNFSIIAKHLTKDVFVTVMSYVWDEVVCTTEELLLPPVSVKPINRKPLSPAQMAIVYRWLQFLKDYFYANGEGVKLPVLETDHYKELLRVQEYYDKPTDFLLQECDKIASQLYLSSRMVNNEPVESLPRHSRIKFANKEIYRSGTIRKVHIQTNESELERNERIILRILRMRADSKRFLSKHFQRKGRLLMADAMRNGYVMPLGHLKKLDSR
Kind of assay: affinity purification with mass spectrometry; Ync13-3xFLAG from S. pombe cell extracts on anti-FLAG M2 affinity gel, HK extraction buffer with 300 mM NaCl and 0.5% NP-40, eluted with 3xFLAG peptide; bands except Ync13 analysed by mass spectrometry.

Results are given in words; binding and its absence hold for the method and conditions named. In cells and extracts the contact can be indirect. Here binding means that the protein was enriched with, or labelled near, the bait; the list need not be complete. Where a sequence is shown, tags or fusion partners need not be part of it.

B1: Rga7–6xHis (natural protein, S. pombe, UniProt O94466 1-695, looked up)
chain: MLSAPSSSTTPASPPTSPPNTTSSDDFAVLKEPKVEAILNSELGLAILNDRIKDYLLTCKELAGFFKKRSILEEESGKNLQKLAKSYLETFQSKHHSPQSFSASVITSMEIHEQLANHSLTLQKTLSAFSDQVIEFHKNAERKRKSIKEYAKKQENAYLEAVMQMDKSKSRFKGAETEYNRALDNKNTGDSQKKVGFFKPKSNAQLTKLEDEARLKAENAESDMHSKIENAQNVQKQLLCIHRPNYIKQFFSLQREIESSLIANYLRYTKLCESNTLLNGLTIRPQKPTPTNCGLQHALDNINANTDFVQYVLHASIKHEDNKNPTDASKTKIIQPPSSYGTGSSAGKTNPPVNPTIKVTAAIPSPLQNTNPAPSTFPNPSVASPAFPNSSTSNPSTAPASASPLASTLKPSTANDTNGSSSSSSSNPRTSSPLASNAENKPPVAQQSPPVLLPTLPPIQTTTIQTSREVAPPPSSINSNRAASPFRPTSVSPQPSSPTKSLLFGARLDAIILREHSNIPNIVMQCTSQVENFGLNLQGIYRVPSSSARVNMLRSQFENNPLLQLHTPEDYENDVHAVADLLKIFFRELREPLIPDNHQRDFIDAGNVEDESRRRDAVHRAINDLPDANYSTIRHLTIHLAKIKENSDVNKMSTNNLAIIWGPTIIKQATIPEISSFSRTIEILIDYCFTIFDYD
notes: Rga7, F-BAR protein and Rho2 GAP of S. pombe; full length, cloned into pET21a between the T7 tag and the 6His tag; also called Rga7–6His; not shown: His6, C-terminal, kept
Turning to B1, the binding result is given as “binds”.

B2: Rng10 (protein, UniProt Q9P6L9 1-1038)
chain: MEENTAQKQSNATGLQRHVSGRWISNVPSYEGNEWSSEESESEDKESNLTSSENIGKNPERELNSDGTDRIIEEEEEEDDIENEASSFSEQSENENYDFSYPGTFVYRKAASSSHETLATKVVSADESARLWAEKRRFLLQKLGKDPNSKPIDYKSSMASSSTRSSQSSQVSAIQPQSQDDNRVSDIRQMENRRELNVKRRSVSSPAEDLAIRPLSFSRYKKAEEIPESLPPIKGRDSFSSVRELNESNVFARAPNKNRFSFASVAETGSGSNFSRATSSRSSKTRSVVYEPNHRHTSFFGDTLSNLSSSLNDKKSPNDDHAVLDSELMEQTLPDSAEAVEIANNVKEDIVSTANDDANELDNTSEKATLETSSKPVTEQAIEQSEVVQEVEEGDTNMTTNTILKPTDEIINKGYAYSITSSHSNHSNEKFEQIPSPDEKLSRTDIDTHVKQLQTTKSTDSLSIPFVESPQQNPEEELSDSLSNDFGIDAEKEKDENLSKPEHHPSITSVNSPFLYSPSKQPSGELDEENLKLRLQDSDVDDEVATIRSLKQNNATNSEVETVTNDPSFSQQPGTHSRILRNFDAISSIDSIPDSFSDSAVDLPVDSSKYTLVGKTQSNSNLLQDNAEKHISKSNLEKVDVKGDTSPNSVEQGIEPQAASVVGSPRSSLVSNNSLEEGALLKNSESLESIYGYLSEEPDPALTKLNTEDPFWTKGSSDDEHTIASVEQDVYPYKTSLPTIVEATTSHTESSNSKAPAIEETTTTKVEVVAAHDAVSISSNSSTHKSHSEPLNRDELEVAALSRGSLPEPPKPNKQIVVQEEDQRDTLSLKTSTTGLSSHSKSAENNSTQQSTTSPSINSGASADAVSSGISKKADNSETNLNYFATLDAFVKSPLMSFDGLGELGSTDQRYNFFNQKIQEYSAYDSGLDNWIQFCLEKDGEAPKEAPPPPRSEPVSTTTKLAKRITQPSLSPARSTVTITHNIATEAKKKSKSAANDILHLFKKKAKSEQSNAKSSSSSIKESKKMKTLFGKKLGFKS
With B2, the binding entry is “binds”.

Source of the values: doi:10.1101/2025.05.13.653810, “Spatial control of secretory vesicle targeting by the Ync13–Rga7–Rng10 complex during cytokinesis” (bioRxiv, 2025).
